Values of other authors, collected in US20060104944A1, “Activators and inhibitors of protease activated receptor2 (PAR2) and methods of use” (priority 2004, published 2006).
Some of these results come from one statement about several compounds together.

Test system: PAR-2
Details: trypsin (2 nM) induced responses; KNRK cell lines expressing rat or human PAR-2; cited from earlier work

Substance	IC50 [µM]
FSLLRY [FSLLRY-NH2, PAR2 antagonist]	50 to 200
LSIGRL [LSIGRL-NH2, PAR2 antagonist]	50 to 200
